Measured values from patent publication US20120284812A1, “Herbicide-Tolerant Plants” (BASF AGROCHEMICAL PRODUCTS, B.V., priority 2009, published 2012).

System: rice calli
Assay: Tissue culture selection of herbicide-tolerant mutant rice lines
Format: cell-based, Oryza sativa
[1] = Total over genotypes for the selection agent
[2] = genotype Indica 1, mutants per calli

Structure (SMILES)	Rate [1] [%]	Rate [2] [%]	Rate (genotype Koshi, mutants per calli) [%]	Rate (genotype T309, mutants per calli) [%]	mutant rate relative to previous reports using sethoxydim selection (versus maize and seashore paspalum reports) [fold]
CCCC(=NOCC)C1=C(O)CC(C2CCCSC2)CC1=O (stereo not shown) [cycloxydim]	0.203	0.161	0.333	0.444	~10
CCC/C(=N\OCC)C1=C(O)CC(CC(C)SCC)CC1=O (stereo not shown) [sethoxydim]	0.068	0.114	–	–	–
